Laboratory results from US7025992B2, “Pharmaceutical formulations” (priority 2001, dated 2006).
For at least one compound, name, drawing or mass did not settle the structure.

Protein sequences, listed by entry. Tags and fused reporters are not part of them.
UniProt P01375, whole entry, species assumed: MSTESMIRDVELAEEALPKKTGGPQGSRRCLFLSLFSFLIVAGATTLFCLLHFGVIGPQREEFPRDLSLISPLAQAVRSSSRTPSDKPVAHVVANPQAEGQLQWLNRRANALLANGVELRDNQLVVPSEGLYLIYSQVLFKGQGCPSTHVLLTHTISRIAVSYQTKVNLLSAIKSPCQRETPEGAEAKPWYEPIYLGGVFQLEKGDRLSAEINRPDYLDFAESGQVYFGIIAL

Target: TNFá (Homo sapiens, UniProt P01375)
Assay: TNFá Antagonism, Table 3
Conditions: Immunomodulatory/anti-inflammatory activity, no reference given

`CCCc1cc(O)c2c(c1)OC(C)(C)[C@@H]1CCC(C)=C[C@@H]21` [THCV, tetrahydrocannabinovarin] was tested, and the “TNFá Antagonism” value was “+”.
